Each structure is given as a SMILES string. Hit rate of the full screen: of about 210,000 compounds, about 5,900 (2.8%) were called active. Another 5% or so got no clear call; they are omitted. Calls come from the whole dose curve; as a rule, active = well fitted activation curve with a large enough effect; inconclusive = small, poorly fitted or top-dose-only effect; inactive = no such curve, though single readings can be large or run the other way. This is a selection; strong and weak results do not stand in their true shares. Where no call is shown, the source filed none.
Potency is the fitted concentration of half-maximal effect.

The experiment in a line: qHTS Assay for Enhancers of SMN2 Splice Variant Expression. For activity change, positive = activation: % of control where 0% means no effect. Note: nearly all actives have a fitted effect of over 55% in size. Particulars: HEK293 SMN2-luciferase splicing reporter, luminescence, 30-36 h; activity change, positive = activation: at 46.1 µM (top of the series) unless noted. The procedure, abridged: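 HEK293 cells carry an SMN2 […]–luciferase reporter in which exon 7 inclusion puts luciferase in frame. Cells were plated 10-12 h before compound addition, then incubated 30-36 h at 37C. ONE-Glo luminescence was read; sodium butyrate at 4.5 mM final served as control.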
For orientation: Quantitative high-throughput screening tests each substance at several concentrations.
For `C#CCSc1nnc(-c2ccccc2)c(=O)[nH]1`, the activity change, positive = activation came to 37.3%.
Still for that read-out and setting: the value for `CCC(=O)NS(=O)(=O)c1cccnc1Nc1ccccc1Cl` was 30.4%.
Turning to `CC(NC(=O)CC(O)(C(F)(F)F)C(F)(F)F)c1ccccc1` (stereo not drawn), the activity change, positive = activation is 23%.
For `CCc1cc[n+](C2=C([O-])c3ccccc3C(=O)/C2=N\S(=O)(=O)c2cccs2)cc1`, the activity change, positive = activation is -106%.
For the compound `Cc1cccc(-c2cc(N)n(-c3ccccc3)n2)c1`, the Potency was active: 11.2 µM.
On the same count and under the same terms, then `Cc1nc2sc(-c3ccccc3)cc2c(=O)[nH]1`, with active: 12.6 µM.
As to `CCOc1ccc(NC(=O)CSc2oc(-c3ccccc3)nc2S(=O)(=O)c2ccc(Cl)cc2)cc1`, the activity change, positive = activation amounted to 34.8%.
On to `Cc1cc(C(F)F)n2nc(C(=O)NCc3ccccc3F)nc2n1`, for which the activity change, positive = activation came out at 30.9%.
The same measure, in the same setting: the value for `CCCOc1ncnc2c1[nH]c1ccccc12` was inactive: -60.3%.
`CN(C)CCNC(=S)Nc1ccc(-c2nc3ccccc3[nH]2)cc1`: the Potency was active: 11.2 µM.
In the case of `COc1cccc([C@@H]2Oc3ccc(OC)cc3C(=O)[C@H]2OC(=O)NCc2ccc3c(c2)OCO3)c1`, the “activity change, positive = activation” value was inactive: 13.2%.
For `CC(=O)c1ccc(NC(=O)CSCC(=O)Nc2ccc3ccccc3c2)cc1`, the activity change, positive = activation worked out at 41.7%.
Take `O=C(CC12CC3CC(CC(C3)C1)C2)NCC(=O)N1CCCC1`: the activity change, positive = activation stood at 26.3%.
As for `COCCCN=Cc1c(C)[nH]n(-c2ccc(Br)c(C)c2)c1=O`, the Potency was active: 2.82 µM.
For the compound `Cn1c(CO)cnc1SCc1ccccc1`, the activity change, positive = activation is 19.8%.
The same measure, in the same setting: then `Cc1cc(C)cc(NC(=O)c2cc(=O)c3ccccc3o2)c1`, with -29.7%; and `CC1CC(C)CN(CCCNC(=O)Cn2ncn3cccc3c2=O)C1` (stereo not drawn), with 74.1%; and `CCOC(=S)SCC(=O)N1CCc2cc(OC)c(OC)cc2C1C1C(=O)CC(C)(C)CC1=O` (stereo not drawn), with 20.5%.
With `CCOC(=O)C1CCN(C(=O)Cc2cccs2)CC1`, the activity change, positive = activation came to 26.6%.
As for `Cc1ccccc1-c1cc(-c2ccccc2O)on1`, the Potency was active: 7.08 µM.
Consider `C=CCNC(=O)c1ccccc1NC(=O)c1ccc(Cl)c(S(=O)(=O)Nc2ccccc2)c1`, for which the activity change, positive = activation is -63.4%.
For the compound `Cc1nccn1CC(O)COC1CCCCC1` (stereo not drawn), the activity change, positive = activation was 24.3%.
In the case of `Cn1nc(CC(=O)NCc2ccc(C(F)(F)F)cc2)c2ccccc2c1=O`, the activity change, positive = activation was -87.7%.
The same measure, in the same setting: the value for `CCOC(=O)N1CCN(C(=O)C2CCN(c3ncnc4c3sc3cccc(F)c34)CC2)CC1` was -74.7%; that for `O=C(c1ccc2nc(N3CCCCC3)sc2c1)N1CCN(Cc2ccc3c(c2)OCO3)CC1` was inactive: -63.5%.
As to `OCCSc1nc(N2CCOCC2)nc(N2CCOCC2)n1`, the activity change, positive = activation was -46.1%.
Consider `CCOc1cc(C(=O)OCC(=O)c2cc(C)n(CC3CCCO3)c2C)ccc1OCC(=O)N1CCOCC1` (stereo not drawn), for which the activity change, positive = activation came out at 37.4%.
`COc1ccc(-c2nc(N)n(C(=O)c3ccccc3Cl)n2)cc1`: the “activity change, positive = activation” value was inactive: 18.6%.
Turning to `Cc1ccc(NC(=O)c2nc(S(=O)(=O)Cc3ccc(F)cc3)ncc2Cl)cc1C`, the activity change, positive = activation was -79.4%.
On to `COc1ccc(CNC(=O)c2cnn(-c3ccccc3)c2-n2cccc2)cc1OC`, for which the activity change, positive = activation stood at 27.6%.
With `Cc1ccccc1Cn1c(SCc2ccc(C(=O)N3CCCCC3)cc2)nc2ccncc21`, the “activity change, positive = activation” value was inactive: -64.1%.
As for `CC(C)(C)C1=Nn2c(nnc2-c2ccco2)SC1`, the activity change, positive = activation is -44.5%.
Consider `Cn1c(CNC(=O)c2ccco2)nnc1SCC(=O)N1c2ccccc2Sc2ccccc21`, for which the activity change, positive = activation amounted to 44.9%.
`Cn1c(-c2c(N)n(-c3ccccc3)c3nc4ccccc4nc23)nc2ccccc21`: the activity change, positive = activation came to 6.82%.
Same read-out and setting: then `Cc1cccc(N2CCN(C(=O)Cn3c(C)c4cnn(-c5ccccc5)c(=O)c4c3C)CC2)c1C`, with inactive: -12.3%.
Turning to `CC1=NN(c2ccccc2)C(=O)C1C(=O)c1cc([N+](=O)[O-])cc([N+](=O)[O-])c1` (stereo not drawn), the “activity change, positive = activation” value was inactive: 19.1%.
As for `CCC(C)NC(=O)CCSc1ccc(C)cc1` (stereo not drawn), the activity change, positive = activation was -0.625%.
For `N#C/C(=C/c1ccc(N2CCCCCC2)o1)c1cccc(F)c1`, the Potency was active: 12.6 µM.
Consider `Cc1cc(=O)oc(C)c1C(=O)Nc1c(C)n(C)n(-c2ccccc2)c1=O`, for which the activity change, positive = activation was determined as 38.5%.
On the same count and under the same terms, then `CCOC(=O)c1c(NC(=O)C2CCN(S(=O)(=O)c3cccs3)CC2)sc(C)c1C`, with 49.1%; and `Cc1cc(C(=O)CSc2nc3ccccc3c(=O)n2C)c(C)n1Cc1ccc2c(c1)OCO2`, with inactive: -58.8%; and `COc1ccc(CCNc2oc(Cc3cccc4ccccc34)nc2C#N)cc1OC`, with inactive: -82.9%.
Turning to `O=C(/C=C/c1cccs1)NC(=S)NNC(=O)c1ccccc1O`, the “activity change, positive = activation” value is inactive: -69.9%.
Turning to `COc1ccc(C2C=C(c3ccc(F)cc3)NC(=S)N2)cc1OC` (stereo not drawn), the “activity change, positive = activation” value is inactive: -33.5%.
For the compound `COc1ccc(-n2c(=O)cc(N3CCN(c4ccccc4F)CC3)[nH]c2=O)cc1`, the activity change, positive = activation was 34.2%.
In the case of `NC(=O)N/N=C/c1cc(Br)ccc1OCC(=O)NCc1ccccc1`, the activity change, positive = activation was determined as 33%.
Regarding `Cc1c(N=C2NC(=O)C(CC(=O)Nc3ccc(Cl)cc3)S2)c(=O)n(-c2ccccc2)n1C` (stereo not drawn), the activity change, positive = activation is 33.1%.
Take `O=C(NCCCN1CCN(Cc2ccccc2)CC1)C1CCN(c2nnc(-n3cccc3)s2)CC1`: the “activity change, positive = activation” value is inactive: -58.3%.
As for `Cc1cccc(NC(=O)c2cccc(NS(=O)(=O)c3ccc(Cl)cc3)c2)c1`, the activity change, positive = activation is -42.6%.
On to `O=C(Nc1nccs1)c1cc2c(s1)-c1ccccc1OC2`, for which the Potency was active: 10 µM.
As to `Cc1ccc(-c2nc3ccccc3[nH]2)cc1NC(=O)c1ccco1`, the activity change, positive = activation is 42.2%.
In the case of `Cc1ccc(NC2Nc3cc(C)nn3S2)c(C)c1` (stereo not drawn), the activity change, positive = activation amounted to 81.3%.
As for `CCCCNC(=O)c1cc2n(n1)C(C(F)(F)F)CC(c1ccccc1)N2` (stereo not drawn), the activity change, positive = activation came to 30.7%.

These data come from PubChem BioAssay AID1458 (National Center for Advancing Translational Sciences (NCATS), 2008).
